{"source": "PubChem BioAssay AID504467", "about": "(National Center for Advancing Translational Sciences (NCATS), 2011)", "note": "Hit rate of the full screen: of about 330,000 compounds, about 7,700 (2.3%) were called active. The shares of active, inactive and inconclusive entries below differ from those in the screen. Calls follow the shape of the dose curve; as a rule, active = well fitted inhibition curve with a large enough effect; inconclusive = small, poorly fitted or top-dose-only effect, or effect the other way; inactive = flat fitted curve, though single readings scatter. A potency beside an inconclusive call is a rough fit, not a confirmed value. Potency is read from the fitted curve at half-maximal effect."}
{"experiment": "qHTS screen for small molecules that inhibit ELG1-dependent DNA repair in human embryonic kidney (HEK293T) cells expressing luciferase-tagged ELG1; also: nearly all actives have a fitted effect of over 55% in size", "settings": "HEK293T ELG1-luciferase reporter, luminescence, 16 h, DNA damage induced by 5-fluorouridine; series mostly up to 46.1 µM", "in_short": "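Overnight (16 hr) co-exposure of 2,000 cells/well to 5-fluorouridine and compound at 37 °C preceded detection. Luciferase was quantified via ONE-Glo luminescence; loss of signal denotes inhibition.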"}
{"smiles": "O=C(O)CNC(=O)c1ccc(NC(=O)/C(=C/c2cccc([N+](=O)[O-])c2)NC(=O)c2ccco2)cc1", "Potency": "inactive"}
{"smiles": "CCN(CC)CCCNC(=O)CCC(=O)NNc1nc2ccccc2c2nc(C)nn12", "Potency": "inactive"}
{"smiles": "COc1ccc(-n2cnc3c(sc4nccc(N(C)C)c43)c2=O)cc1", "Potency": "inconclusive: 10.3 µM [inhibitor, partial curve]"}
{"smiles": "COc1ccc(-c2noc3c2-c2nc(-c4ccccc4F)sc2CC3)cc1", "Potency": "inactive"}
{"smiles": "COc1cccc(-c2nc(CS(=O)(=O)CC(=O)N3CCOCC3)c(C)o2)c1", "Potency": "inconclusive: 3.26 µM [inhibitor, single point]"}
{"smiles": "O=C1N=C2SCCN2/C1=C\\c1ccc(Cl)cc1", "Potency": "inactive"}
{"smiles": "COc1ccc(CN(C)C(C)C(=O)Nc2ccc(S(=O)(=O)N3CCCCC3)cc2)c(OC)c1", "note": "(stereo not drawn)", "Potency": "inconclusive: 23.1 µM [inhibitor, single point]"}
{"smiles": "OC1(c2ccc(Cl)cc2)CCN(Cc2cn[nH]c2-c2ccc(F)cc2)CC1", "Potency": "inconclusive: 29.1 µM [inhibitor, single point]"}
{"smiles": "COCCNC(=S)N1CCN(C(c2ccccc2)c2ccccc2)CC1", "Potency": "inactive"}
{"smiles": "Cc1ccc(S(=O)(=O)Nc2nnc(C3CCCCC3)s2)cc1", "Potency": "inactive"}
{"smiles": "O=C(Nc1nc2ccsc2c(=O)s1)c1ccc(Cl)cc1", "Potency": "inconclusive: 2.91 µM [activator, full curve]"}
{"smiles": "Cc1cc(=O)[nH]c(SCC(=O)C23CC4CC(CC(C4)C2)C3)c1C#N", "Potency": "inactive"}
{"smiles": "COc1cc(-c2ccc3sc(-c4ccsc4)c(C#CCO)c3c2)cc(OC)c1OC", "Potency": "active: 9.2 µM"}
{"smiles": "O=C(OCc1nc2ccccc2s1)c1ccco1", "Potency": "inconclusive: 14.6 µM [activator, partial curve]"}
{"smiles": "COc1ccc(C(C(=O)Nc2ccc(F)cc2)N(C(=O)Cn2nnc3ccccc32)C2CC2)cc1", "note": "(stereo not drawn)", "Potency": "inconclusive: 20.6 µM [inhibitor, single point]"}
{"smiles": "COc1ccccc1CNC(=O)c1c(N)n(CCCN2CCOCC2)c2nc3ccccc3nc12", "Potency": "inconclusive: 25.9 µM [inhibitor, partial curve]"}
{"smiles": "COc1ccccc1C(=O)Nc1ccc(OCc2nnc3c4ccccc4c(C)nn23)cc1", "Potency": "active: 20.6 µM"}
{"smiles": "Fc1ccccc1OCCCCCCN1CCCC1", "Potency": "inconclusive: 29.1 µM [activator, partial curve, poor fit]"}
{"smiles": "CC(C)Oc1ccc(C2CC(=O)N(c3cccc(C(=O)O)c3)C2=O)cc1", "note": "(stereo not drawn)", "Potency": "inconclusive: 18.4 µM [activator, partial curve]"}
{"smiles": "O=C(c1ccc2c(=O)n3c(nc2c1)CCCCC3)N1CCN(c2ccc([N+](=O)[O-])cc2)CC1", "Potency": "inconclusive: 10.3 µM [inhibitor, single point]"}
{"smiles": "O=C(c1ccc2c(=O)n3c(nc2c1)CCC3)N1CCCSC1=Nc1ccccc1", "Potency": "inconclusive: 18.3 µM [activator, single point]"}
{"smiles": "CC(C)(C)c1ccc(C(=O)OCc2c(-c3ccccc3)ncc3ccccc23)cc1", "Potency": "inactive"}
{"smiles": "O=[N+]([O-])c1ccc(NCCCNS(=O)(=O)c2ccccc2)cc1", "Potency": "inconclusive: 13 µM [inhibitor, single point]"}
{"smiles": "COc1cccc(C(=O)Nc2cccc(-c3ccc(N4CCOCC4)nn3)c2)c1", "Potency": "inactive"}
{"smiles": "Cc1cnc(C(=O)N2CCc3c([nH]c4ccccc34)C2c2ccc(F)cc2)cn1", "note": "(stereo not drawn)", "Potency": "inconclusive: 18.3 µM [inhibitor, single point]"}
{"smiles": "COc1ccc(CNC(=O)C2CCN(S(=O)(=O)c3ccc4c(c3)NC(=O)C(C)S4)CC2)cc1", "note": "(stereo not drawn)", "Potency": "inactive"}
{"smiles": "COc1ccccc1-c1nnc(NC(=O)CSc2nncn2C)s1", "Potency": "inconclusive: 14.6 µM [activator, partial curve]"}
{"smiles": "CC(C)(C)OC(=O)C[C@@H]1C/C=C\\C[C@@H](CC(=O)N[C@H](CO)Cc2ccccc2)C(=O)N2CCC[C@H]2COC1=O", "Potency": "active: 2.91 µM"}
{"smiles": "Cc1sc2nc(CN3CCCC3)nc(Cl)c2c1C", "Potency": "inconclusive: 13 µM [activator, partial curve, poor fit]"}
{"smiles": "O=C(NCc1ccc2c(c1)OCO2)c1cccc(S(=O)(=O)N2CCCCC2)c1", "Potency": "inconclusive: 3.26 µM [inhibitor, partial curve, poor fit]"}
{"smiles": "O=C(Nc1nccc(-c2cccs2)n1)c1cccs1", "Potency": "inconclusive: 16.4 µM [activator, partial curve]"}
{"smiles": "COc1ccc2c(c1)O[C@@H](c1cccc(C(F)(F)F)c1)[C@H](OC(=O)NCCc1ccc(OC)c(OC)c1)C2=O", "Potency": "inconclusive: 29.1 µM [inhibitor, single point]"}
{"smiles": "CCCCNC(=O)CCC(=O)Nc1ccc2nc(N3CCCCC3)cc(C)c2c1", "Potency": "inconclusive: 9.2 µM [activator, partial curve]"}
{"smiles": "COc1ccc(-c2nc3c(n2O)CCCC3=O)cc1OC", "Potency": "inactive"}
{"smiles": "COc1ccc(-c2c(C)nn3c(N4CCCCCC4)cc(C)nc23)cc1OC", "Potency": "active: 11.6 µM"}
{"smiles": "COc1ccc(CCNC(=O)c2ccc3c(c2)N(Cc2ccccc2)CCS3)cc1OC", "Potency": "inconclusive: 14.6 µM [inhibitor, partial curve]"}
{"smiles": "CC1(C)CC(=O)/C(=N/Nc2ccc(Cl)cc2)CO1", "Potency": "inconclusive: 9.2 µM [activator, partial curve]"}
{"smiles": "Cc1ccc(-c2nnc(NC(=O)c3c(F)cccc3Cl)s2)cc1", "Potency": "inconclusive: 20.6 µM [activator, partial curve, poor fit]"}
{"smiles": "Cc1noc(NS(=O)(=O)c2ccc(NC(=O)c3ccc(F)cc3)cc2)c1C", "Potency": "inactive"}
{"smiles": "O=S(=O)(c1ccc(Oc2ccc(S(=O)(=O)N3CCOCC3)cc2)cc1)N1CCOCC1", "Potency": "inconclusive: 23.1 µM [inhibitor, partial curve, poor fit]"}
{"smiles": "CN(CC(=O)Nc1c(Cl)cccc1Cl)C(=O)c1ccccc1Cc1ccccc1", "Potency": "inactive"}
{"smiles": "CN(C)Cc1c(-c2ccc(Cl)cc2)nc2ccc(Cl)cn12", "Potency": "inactive"}
{"smiles": "Cc1ccc([C@@H]2CC=C(C(=O)O)[C@H](c3ccc(Br)cc3)N2S(=O)(=O)c2ccc(C)cc2)cc1", "Potency": "inactive"}
{"smiles": "CC(C)CCNC(=O)CN(C(=O)CCC(=O)Nc1nccs1)c1ccc2c(c1)OCCO2", "Potency": "inconclusive: 20.6 µM [activator, partial curve]"}
{"smiles": "COc1ccc(-n2ccnc2SCC(=O)NCc2ccc(F)cc2)c(OC)c1", "Potency": "inactive"}
{"smiles": "c1ccc2c(NCCCN3CCOCC3)c3ccccc3nc2c1", "Potency": "inconclusive: 23.1 µM [inhibitor, single point]"}
{"smiles": "COc1ccc(NC(=O)CCc2ccc(OC)c(OC)c2)cn1", "Potency": "inactive"}
{"smiles": "COc1ccc(C2SCCN2S(=O)(=O)c2ccc(NC(C)=O)cc2)cc1OC", "note": "(stereo not drawn)", "Potency": "inconclusive: 29.1 µM [inhibitor, single point]"}
{"smiles": "CCC(Sc1nncn1C)C(=O)Nc1nnc(-c2ccccc2Cl)s1", "note": "(stereo not drawn)", "Potency": "inconclusive: 11.6 µM [activator, partial curve]"}
{"smiles": "O=C(Nc1ccc2c(c1)OCCO2)C1CCN(c2nnnn2-c2ccccc2)CC1", "Potency": "inconclusive: 29.1 µM [inhibitor, single point]"}
{"smiles": "CC(NC(=O)CSc1nnnn1C1CC1)c1ccccc1Br", "note": "(stereo not drawn)", "Potency": "inactive"}
{"smiles": "Cn1ccc(C(=O)OCC(=O)c2ccccc2)n1", "Potency": "inconclusive: 14.6 µM [activator, partial curve]"}
{"smiles": "COc1ccc(-c2cc(C(=O)N3CCOCC3)no2)cc1OC", "Potency": "inconclusive: 18.4 µM [activator, partial curve]"}
{"smiles": "COc1cccc(C(=O)Nc2ncc3c(n2)CC(c2ccc(OC)cc2OC)CC3=O)c1", "note": "(stereo not drawn)", "Potency": "inconclusive: 3.26 µM [inhibitor, full curve]"}
{"smiles": "Cc1nc(SCC(=O)N2CCCCC2)c2c(C)c(C)sc2n1", "Potency": "inconclusive: 9.2 µM [inhibitor, partial curve, poor fit]"}
{"smiles": "Cn1cnnc1SCc1ccc(C(=O)N=Nc2c(O)n(C)c3ccccc23)cc1", "Potency": "inconclusive: 23.1 µM [inhibitor, partial curve, poor fit]"}
{"smiles": "O=[N+]([O-])c1ccc(N2CCCC2)nc1", "Potency": "inactive"}
{"smiles": "CCOc1ccc(CN(C(=O)c2ccccn2)c2ccc(OC)c(Cl)c2)cc1", "Potency": "inconclusive: 4.61 µM [activator, partial curve]"}
{"smiles": "O=C(N/N=C\\c1ccc(-c2ccccc2[N+](=O)[O-])o1)C1COc2ccccc2O1", "note": "(stereo not drawn)", "Potency": "inconclusive: 20.6 µM [inhibitor, single point]"}
{"smiles": "CCCN(C(=O)c1cc(Cl)nc2ccccc12)c1c(N)n(Cc2ccccc2)c(=O)[nH]c1=O", "Potency": "inconclusive: 32.6 µM [activator, partial curve, poor fit]"}
{"smiles": "Cc1cc(C)nc(SCC(=O)OCC(=O)Nc2nc3ccccc3s2)n1", "Potency": "inconclusive: 29.1 µM [activator, single point]"}
{"smiles": "CC(Oc1ccc2c3c(c(=O)oc2c1)CCC3)C(=O)NCCN1CCOCC1", "note": "(stereo not drawn)", "Potency": "inconclusive: 23.1 µM [activator, partial curve, poor fit]"}
{"smiles": "C=CCOc1ccc(/C=N/NC(=O)C(=O)Nc2ccccn2)cc1OC", "Potency": "inconclusive: 14.6 µM [activator, partial curve, poor fit]"}
{"smiles": "Cn1c(NC(=O)/C=C\\c2ccccc2)cc(=O)n(C)c1=O", "Potency": "inconclusive: 14.6 µM [activator, partial curve]"}
{"smiles": "Cc1cc2nnc(SCC(=O)Nc3cc(S(=O)(=O)N4CCOCC4)ccc3Cl)n2c2ccccc12", "Potency": "active: 18.4 µM"}
{"smiles": "CC(=O)c1c(C)[nH]c(C(=O)COC(=O)c2cc(S(=O)(=O)N(C)c3ccccc3)ccc2Cl)c1C", "Potency": "inconclusive: 29.1 µM [inhibitor, single point]"}
{"smiles": "CN(c1ccc(S(=O)(=O)N2CCOCC2)cn1)C1CCCCC1", "Potency": "inactive"}
